These are yes or no findings as the source states them, for the method shown. Binding seen in cells or lysates may run through a third protein. Some binding calls cover weakened binding; strength is not graded here.

By UniProt entry, the sequences of proteins in these tests, tags left out. Where a name states a change or a piece, a line headed by the entry shows the natural chain unless it says otherwise.
UniProt Q9H6Q4: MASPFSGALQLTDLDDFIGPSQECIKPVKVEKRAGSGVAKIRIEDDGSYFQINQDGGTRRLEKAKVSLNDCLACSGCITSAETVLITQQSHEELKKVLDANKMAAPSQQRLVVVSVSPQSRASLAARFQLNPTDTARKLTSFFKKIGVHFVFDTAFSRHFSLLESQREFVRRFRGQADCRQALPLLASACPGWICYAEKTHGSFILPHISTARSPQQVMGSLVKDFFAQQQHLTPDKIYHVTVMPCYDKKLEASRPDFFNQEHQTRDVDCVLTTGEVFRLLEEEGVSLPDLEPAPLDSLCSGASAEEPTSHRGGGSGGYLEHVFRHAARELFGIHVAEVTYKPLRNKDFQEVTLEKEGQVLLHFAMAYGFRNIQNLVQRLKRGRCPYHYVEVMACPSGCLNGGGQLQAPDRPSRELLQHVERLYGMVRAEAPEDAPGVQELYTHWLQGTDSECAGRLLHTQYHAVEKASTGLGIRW

In experiment [1] the target is 3HA-3FLAG-CIAO3, wildtype (human) (UniProt Q9H6Q4). Kind of experiment: co-IP; anti-HA beads on whole cell extracts of Flp-In 293 cells expressing the 3HA-3FLAG-tagged bait (NUBP2, CIAO3 wildtype or S161I, ERCC2 wildtype or mutant); 100 mM Tris-HCl pH 8.0, 150 mM NaCl, 5% glycerol, 0.1% NP-40, 4 °C; immunoblot of endogenous partners; cells untreated or treated with FAC, DFO (3 or 8 h), tBHP (4 h), 1% O2 (16 h), nontarget siRNA or 1% formaldehyde. A general note: A western blot detects proteins with antibodies after separation by electrophoresis.

Experiment [2] addresses 3HA-3FLAG-CIAO3-S161I (human) (UniProt Q9H6Q4). Described as above.

B1: nucleotide-binding protein 2 (NUBP2), endogenous (protein, UniProt Q9Y5Y2 1-271)
chain: MEAAAEPGNLAGVRHIILVLSGKGGVGKSTISTELALALRHAGKKVGILDVDLCGPSIPRMLGAQGRAVHQCDRGWAPVFLDREQSISLMSVGFLLEKPDEAVVWRGPKKNALIKQFVSDVAWGELDYLVVDTPPGTSDEHMATIEALRPYQPLGALVVTTPQAVSVGDVRRELTFCRKTGLRVMGIVENMSGFTCPHCTECTSVFSRGGGEELAQLAGVPFLGSVPLDPALMRTLEEGHDFIQEFPGSPAFAALTSIAQKILDATPACLP
B1: the binding entry in experiment [1] is reported as “binds”; in experiment [2] it was “binds weakly”.

B2: CDKAL1 (protein, UniProt Q5VV42 1-579)
chain: MPSASCDTLLDDIEDIVSQEDSKPQDRHFVRKDVVPKVRRRNTQKYLQEEENSPPSDSTIPGIQKIWIRTWGCSHNNSDGEYMAGQLAAYGYKITENASDADLWLLNSCTVKNPAEDHFRNSIKKAQEENKKIVLAGCVPQAQPRQDYLKGLSIIGVQQIDRVVEVVEETIKGHSVRLLGQKKDNGRRLGGARLDLPKIRKNPLIEIISINTGCLNACTYCKTKHARGNLASYPIDELVDRAKQSFQEGVCEIWLTSEDTGAYGRDIGTNLPTLLWKLVEVIPEGAMLRLGMTNPPYILEHLEEMAKILNHPRVYAFLHIPVQSASDSVLMEMKREYCVADFKRVVDFLKEKVPGITIATDIICGFPGETDQDFQETVKLVEEYKFPSLFINQFYPRPGTPAAKMEQVPAQVKKQRTKDLSRVFHSYSPYDHKIGERQQVLVTEESFDSKFYVAHNQFYEQVLVPKNPAFMGKMVEVDIYESGKHFMKGQPVSDAKVYTPSISKPLAKGEVSGLTKDFRNGLGNQLSSGSHTSAASQCDSASSRMVLPMPRLHQDCALRMSVGLALLGLLFAFFVKVYN
As to B2, the binding result in experiment [2] was “binds”.

B3: nucleotide-binding protein 1 (NUBP1) (protein, UniProt P53384 1-320)
chain: MEEVPHDCPGADSAQAGRGASCQGCPNQRLCASGAGATPDTAIEEIKEKMKTVKHKILVLSGKGGVGKSTFSAHLAHGLAEDENTQIALLDIDICGPSIPKIMGLEGEQVHQSGSGWSPVYVEDNLGVMSVGFLLSSPDDAVIWRGPKKNGMIKQFLRDVDWGEVDYLIVDTPPGTSDEHLSVVRYLATAHIDGAVIITTPQEVSLQDVRKEINFCRKVKLPIIGVVENMSGFICPKCKKESQIFPPTTGGAELMCQDLEVPLLGRVPLDPLIGKNCDKGQSFFIDAPDSPATLAYRSIIQRIQEFCNLHQSKEENLISS
Turning to B3, the binding result in experiment [1] was “binds”; in experiment [2] it was “binds weakly”.
